Test results: the supplement of paper PMC10849652
This is one part of the list.

Protein sequences, listed by entry. Tags and fused reporters are not part of them. Lines headed by an entry give the natural chain unless they say otherwise; changes in a name come on top.
UniProt P09110: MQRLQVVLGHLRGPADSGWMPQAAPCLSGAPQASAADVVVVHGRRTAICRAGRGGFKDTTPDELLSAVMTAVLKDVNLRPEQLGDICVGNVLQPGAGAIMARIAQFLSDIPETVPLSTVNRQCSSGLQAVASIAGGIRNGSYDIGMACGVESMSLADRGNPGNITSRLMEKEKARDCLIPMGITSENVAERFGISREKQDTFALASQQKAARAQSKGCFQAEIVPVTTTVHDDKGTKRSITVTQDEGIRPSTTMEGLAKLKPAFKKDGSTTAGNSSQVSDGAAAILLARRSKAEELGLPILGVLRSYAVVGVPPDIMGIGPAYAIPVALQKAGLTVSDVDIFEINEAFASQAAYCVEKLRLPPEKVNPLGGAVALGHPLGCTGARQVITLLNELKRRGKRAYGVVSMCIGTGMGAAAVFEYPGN
UniProt P42684, whole entry, looked up: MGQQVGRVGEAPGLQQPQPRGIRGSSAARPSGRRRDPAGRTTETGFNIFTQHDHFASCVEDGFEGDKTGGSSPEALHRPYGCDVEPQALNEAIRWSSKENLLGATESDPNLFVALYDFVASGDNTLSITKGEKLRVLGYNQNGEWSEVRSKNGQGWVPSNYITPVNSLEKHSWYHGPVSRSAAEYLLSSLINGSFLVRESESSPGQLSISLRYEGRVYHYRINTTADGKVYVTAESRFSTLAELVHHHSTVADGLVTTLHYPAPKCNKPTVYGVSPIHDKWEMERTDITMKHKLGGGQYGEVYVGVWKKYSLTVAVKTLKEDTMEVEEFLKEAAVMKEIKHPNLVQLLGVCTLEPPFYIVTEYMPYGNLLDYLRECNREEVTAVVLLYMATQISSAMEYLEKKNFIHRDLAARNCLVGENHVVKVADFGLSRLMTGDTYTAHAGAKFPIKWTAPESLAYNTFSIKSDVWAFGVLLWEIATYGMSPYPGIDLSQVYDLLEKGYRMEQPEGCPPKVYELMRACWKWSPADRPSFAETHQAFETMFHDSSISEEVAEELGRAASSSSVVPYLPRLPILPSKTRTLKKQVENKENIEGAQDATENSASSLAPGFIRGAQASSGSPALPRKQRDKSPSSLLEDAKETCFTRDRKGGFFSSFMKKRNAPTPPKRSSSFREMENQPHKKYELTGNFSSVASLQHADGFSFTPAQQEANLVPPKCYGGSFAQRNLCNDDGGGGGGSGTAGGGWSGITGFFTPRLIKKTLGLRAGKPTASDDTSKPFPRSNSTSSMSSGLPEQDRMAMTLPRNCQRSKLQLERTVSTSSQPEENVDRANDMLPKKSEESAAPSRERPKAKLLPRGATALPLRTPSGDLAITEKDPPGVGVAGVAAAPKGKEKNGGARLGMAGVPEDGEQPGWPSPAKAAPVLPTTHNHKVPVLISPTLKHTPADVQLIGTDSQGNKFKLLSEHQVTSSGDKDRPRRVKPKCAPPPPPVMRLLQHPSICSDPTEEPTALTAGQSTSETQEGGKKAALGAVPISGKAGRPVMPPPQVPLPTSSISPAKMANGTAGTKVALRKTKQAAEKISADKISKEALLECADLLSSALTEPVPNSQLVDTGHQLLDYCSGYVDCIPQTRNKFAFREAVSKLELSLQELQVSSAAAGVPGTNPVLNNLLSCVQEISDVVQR
UniProt P33527: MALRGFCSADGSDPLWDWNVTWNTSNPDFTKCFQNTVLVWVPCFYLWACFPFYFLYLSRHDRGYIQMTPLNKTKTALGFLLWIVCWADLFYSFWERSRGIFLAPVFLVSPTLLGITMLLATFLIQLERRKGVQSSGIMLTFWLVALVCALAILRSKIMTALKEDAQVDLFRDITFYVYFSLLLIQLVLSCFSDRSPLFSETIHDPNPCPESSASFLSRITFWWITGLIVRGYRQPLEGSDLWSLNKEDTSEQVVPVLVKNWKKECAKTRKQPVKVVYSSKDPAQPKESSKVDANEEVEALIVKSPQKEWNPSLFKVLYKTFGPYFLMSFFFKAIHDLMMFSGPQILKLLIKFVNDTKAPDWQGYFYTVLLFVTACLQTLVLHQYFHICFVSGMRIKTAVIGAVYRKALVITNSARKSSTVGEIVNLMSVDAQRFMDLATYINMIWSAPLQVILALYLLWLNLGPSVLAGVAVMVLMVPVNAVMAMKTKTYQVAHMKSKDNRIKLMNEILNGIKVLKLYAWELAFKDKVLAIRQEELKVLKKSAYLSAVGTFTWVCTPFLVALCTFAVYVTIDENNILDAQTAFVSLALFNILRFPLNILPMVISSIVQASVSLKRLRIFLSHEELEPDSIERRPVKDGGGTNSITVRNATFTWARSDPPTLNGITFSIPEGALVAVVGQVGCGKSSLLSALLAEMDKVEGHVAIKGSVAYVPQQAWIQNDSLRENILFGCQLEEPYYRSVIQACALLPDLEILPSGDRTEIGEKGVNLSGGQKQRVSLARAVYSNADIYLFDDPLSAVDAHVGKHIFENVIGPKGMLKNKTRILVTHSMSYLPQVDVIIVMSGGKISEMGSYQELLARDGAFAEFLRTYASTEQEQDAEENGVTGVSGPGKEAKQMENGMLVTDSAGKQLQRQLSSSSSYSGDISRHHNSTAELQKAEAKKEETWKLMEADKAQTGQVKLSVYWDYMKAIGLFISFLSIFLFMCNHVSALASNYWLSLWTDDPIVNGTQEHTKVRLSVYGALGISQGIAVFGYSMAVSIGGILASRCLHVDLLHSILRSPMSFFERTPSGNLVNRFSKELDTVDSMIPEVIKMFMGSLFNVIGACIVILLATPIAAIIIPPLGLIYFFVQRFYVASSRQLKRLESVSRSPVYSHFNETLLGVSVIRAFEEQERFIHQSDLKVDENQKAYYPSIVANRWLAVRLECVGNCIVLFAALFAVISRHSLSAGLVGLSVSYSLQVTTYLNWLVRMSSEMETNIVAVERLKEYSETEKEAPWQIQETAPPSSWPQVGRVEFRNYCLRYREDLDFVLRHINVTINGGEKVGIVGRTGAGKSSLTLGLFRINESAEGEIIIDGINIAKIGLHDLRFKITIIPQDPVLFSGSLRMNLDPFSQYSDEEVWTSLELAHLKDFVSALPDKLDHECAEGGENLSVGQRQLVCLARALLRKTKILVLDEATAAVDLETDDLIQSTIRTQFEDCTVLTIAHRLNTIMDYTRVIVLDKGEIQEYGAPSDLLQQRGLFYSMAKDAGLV
UniProt Q9NUJ1: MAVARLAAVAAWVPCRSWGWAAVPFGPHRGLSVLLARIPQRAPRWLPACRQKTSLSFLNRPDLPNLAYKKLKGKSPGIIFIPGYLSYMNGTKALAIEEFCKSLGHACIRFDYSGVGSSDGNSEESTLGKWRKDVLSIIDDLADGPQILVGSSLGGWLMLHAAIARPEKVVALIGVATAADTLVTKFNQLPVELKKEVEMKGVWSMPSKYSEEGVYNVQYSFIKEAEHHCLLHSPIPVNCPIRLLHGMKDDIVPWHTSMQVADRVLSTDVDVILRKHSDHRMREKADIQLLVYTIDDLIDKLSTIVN
UniProt Q9Y312: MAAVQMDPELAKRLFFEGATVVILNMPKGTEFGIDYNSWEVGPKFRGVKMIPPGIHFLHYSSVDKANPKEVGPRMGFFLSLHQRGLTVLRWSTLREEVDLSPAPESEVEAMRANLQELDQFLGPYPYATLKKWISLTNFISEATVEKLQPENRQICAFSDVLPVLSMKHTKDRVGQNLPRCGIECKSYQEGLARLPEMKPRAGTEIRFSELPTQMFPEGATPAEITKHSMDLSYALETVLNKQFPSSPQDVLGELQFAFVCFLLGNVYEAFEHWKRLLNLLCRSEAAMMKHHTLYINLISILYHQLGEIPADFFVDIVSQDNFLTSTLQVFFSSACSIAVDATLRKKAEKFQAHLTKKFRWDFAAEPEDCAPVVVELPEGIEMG
UniProt Q9NUQ8: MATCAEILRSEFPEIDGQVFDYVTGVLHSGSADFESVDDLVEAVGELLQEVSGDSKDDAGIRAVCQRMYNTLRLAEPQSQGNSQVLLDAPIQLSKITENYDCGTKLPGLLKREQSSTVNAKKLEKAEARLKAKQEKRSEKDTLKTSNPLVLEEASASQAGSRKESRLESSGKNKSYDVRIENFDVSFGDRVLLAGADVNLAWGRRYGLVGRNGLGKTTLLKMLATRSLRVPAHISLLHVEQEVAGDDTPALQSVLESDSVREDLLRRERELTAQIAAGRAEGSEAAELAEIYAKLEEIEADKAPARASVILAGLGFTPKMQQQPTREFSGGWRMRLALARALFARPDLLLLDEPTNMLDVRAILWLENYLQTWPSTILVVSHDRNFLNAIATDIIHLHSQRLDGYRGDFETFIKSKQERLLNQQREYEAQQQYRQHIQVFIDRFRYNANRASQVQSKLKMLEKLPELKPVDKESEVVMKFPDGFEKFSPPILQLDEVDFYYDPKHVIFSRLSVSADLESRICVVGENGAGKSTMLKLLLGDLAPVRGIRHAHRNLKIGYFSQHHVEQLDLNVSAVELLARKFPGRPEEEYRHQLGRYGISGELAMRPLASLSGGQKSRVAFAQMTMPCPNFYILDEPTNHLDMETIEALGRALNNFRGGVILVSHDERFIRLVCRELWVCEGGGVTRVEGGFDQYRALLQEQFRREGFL
UniProt O15439: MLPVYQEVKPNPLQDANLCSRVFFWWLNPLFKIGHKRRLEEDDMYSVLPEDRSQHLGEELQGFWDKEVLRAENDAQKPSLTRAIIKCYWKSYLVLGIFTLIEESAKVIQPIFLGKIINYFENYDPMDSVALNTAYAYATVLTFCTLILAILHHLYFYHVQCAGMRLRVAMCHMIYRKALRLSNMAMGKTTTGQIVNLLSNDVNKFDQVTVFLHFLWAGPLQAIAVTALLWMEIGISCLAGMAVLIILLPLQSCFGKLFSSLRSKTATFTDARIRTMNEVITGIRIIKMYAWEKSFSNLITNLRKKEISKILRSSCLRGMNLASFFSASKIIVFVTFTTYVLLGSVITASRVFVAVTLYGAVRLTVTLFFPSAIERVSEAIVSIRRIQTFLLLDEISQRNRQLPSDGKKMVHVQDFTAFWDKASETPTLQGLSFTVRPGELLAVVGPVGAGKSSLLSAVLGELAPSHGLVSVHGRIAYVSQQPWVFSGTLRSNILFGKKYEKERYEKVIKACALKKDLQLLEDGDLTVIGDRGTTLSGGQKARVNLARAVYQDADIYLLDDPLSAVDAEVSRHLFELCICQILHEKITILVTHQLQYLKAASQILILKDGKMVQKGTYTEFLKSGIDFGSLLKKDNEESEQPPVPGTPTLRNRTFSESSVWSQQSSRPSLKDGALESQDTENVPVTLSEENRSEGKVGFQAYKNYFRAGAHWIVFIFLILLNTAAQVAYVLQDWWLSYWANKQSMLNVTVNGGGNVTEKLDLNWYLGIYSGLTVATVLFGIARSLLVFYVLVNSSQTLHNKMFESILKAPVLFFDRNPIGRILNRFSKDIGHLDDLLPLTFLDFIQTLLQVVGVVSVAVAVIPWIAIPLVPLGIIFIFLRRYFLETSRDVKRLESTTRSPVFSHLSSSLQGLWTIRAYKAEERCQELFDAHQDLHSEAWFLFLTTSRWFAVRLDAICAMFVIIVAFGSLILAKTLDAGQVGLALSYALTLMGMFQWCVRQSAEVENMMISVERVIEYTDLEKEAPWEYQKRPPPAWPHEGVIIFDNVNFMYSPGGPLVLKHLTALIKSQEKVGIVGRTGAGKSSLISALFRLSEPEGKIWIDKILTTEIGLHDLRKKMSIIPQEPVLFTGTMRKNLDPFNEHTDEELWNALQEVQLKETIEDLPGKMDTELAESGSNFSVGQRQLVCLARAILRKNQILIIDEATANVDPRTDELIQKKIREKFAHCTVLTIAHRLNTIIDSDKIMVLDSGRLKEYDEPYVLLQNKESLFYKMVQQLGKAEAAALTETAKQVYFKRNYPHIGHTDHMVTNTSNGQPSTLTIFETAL
UniProt P42765: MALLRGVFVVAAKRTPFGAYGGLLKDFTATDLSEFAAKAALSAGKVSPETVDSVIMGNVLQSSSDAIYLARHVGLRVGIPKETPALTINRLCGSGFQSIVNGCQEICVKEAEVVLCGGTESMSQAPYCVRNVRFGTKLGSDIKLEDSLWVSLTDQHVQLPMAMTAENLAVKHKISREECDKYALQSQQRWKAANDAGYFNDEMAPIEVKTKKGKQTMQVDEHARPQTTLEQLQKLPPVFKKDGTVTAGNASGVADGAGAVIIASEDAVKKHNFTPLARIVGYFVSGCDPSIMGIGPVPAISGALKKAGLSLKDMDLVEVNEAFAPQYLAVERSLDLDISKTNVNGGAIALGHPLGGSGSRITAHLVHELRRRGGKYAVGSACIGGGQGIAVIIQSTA

What was measured:
Assay in all cases: log2 fold change, soluble protein after heating vs DMSO (PISA); higher = thermal stabilisation; K562 lysate, 10 uM; active = over 0.2 and 3.5 SD of the protein, either way, in both replicates (recomputed)
[1] = compound: C1=CC=C(C=C1)[C@H](COC2=CC3=C(C=C2)NC(=O)N3)NC(=O)C4=CC=CN(C4=O)CC5=CC(=C(C=C5)F)F
How it was run: (§1)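 Dounce homogenisation of K562 pellets in PBS pH 7.4 with 1 mM MgCl2 produced a crude extract, used at 1 mg/mL protein. Exposure to 10 μM compound lasted 30 min, and aliquots were then heated for 3 min across 48°C-58°C, pooled and brought to 0.5% NP-40 at 4°C. The supernatant after 21,000xg for 90 min was quantified by TMTpro 16plex LC-MS/MS with channel sums equalised. Duplicate values are given as log-two fold change in thermal stability relative to solvent controls.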

[2] = compound: CC1=C(SC2=C1C(=N[C@H](C3=NN=C(N32)C)CC(=O)N)C4=CC=C(C=C4)Cl)C
How it was run: as §1

[3] = compound: CC1=C2C(=CC=C1)N=C(N(C2=O)C3=CC=CC=C3C)CN4C=NC5=C(N=CN=C54)N
How it was run: as §1

[4] = compound: Cc1sc2c(c1C)C(c1ccc(Cl)cc1)=N[C@@H](CC(=O)OC(C)(C)C)c1nnc(C)n1-2
How it was run: as §1

[5] = compound: c1ccc([C@@H]2C[C@H]2NC2CCNCC2)cc1
How it was run: as §1

Measured: log2 fold change

ACAA1 (UniProt P09110)
inactive: [1] -0.004 | [2] 0.007 | [3] -0.005 | [4] 0.046 | [5] -0.003

ABL2 (UniProt P42684)
inactive: [1] -0.026 | [2] 0.016 | [3] 0 | [4] -0.14 | [5] -0.105

ABCC1 (UniProt P33527)
inactive: [1] -0.047 | [2] 0.012 | [3] 0.038 | [4] -0.033 | [5] -0.005

ABHD10 (UniProt Q9NUJ1)
inactive: [1] 0.072 | [2] -0.009 | [3] 0.009 | [4] -0.004 | [5] 0.058

ABCB8 (UniProt Q9NUT2)
inactive: [1] 0.075 | [2] -0.024 | [3] 0.004 | [4] 0.022 | [5] 0.003

AAR2 (UniProt Q9Y312)
inactive: [1] 0.01 | [2] 0.086 | [3] 0.054 | [4] -0.007 | [5] 0.028

ABCF3 (UniProt Q9NUQ8)
inactive: [1] 0.002 | [2] -0.016 | [3] 0.031 | [4] 0.013 | [5] 0.06

ABCC4 (UniProt O15439)
inactive: [1] -0.07 | [2] -0.009 | [3] 0.025 | [4] -0.035 | [5] -0.008

ACAA2 (UniProt P42765)
inactive: [1] 0.04 | [2] 0.019 | [3] -0.012 | [4] -0.021 | [5] 0.028
